{"source": "patent US12564622B2", "about": "“Preventing cytokine release syndrome” (priority 2017, dated 2026)", "tested_on": "C. novyi-NT therapy-induced toxicity in mice bearing large subcutaneous CT26 tumors", "experiment": "C. novyi-NT therapy of large subcutaneous CT26 tumors (therapy-induced toxicity)", "type": "in vivo, mouse (BALB/c)", "conditions": "CT26 tumor-bearing mice injected with parental C. novyi-NT spores, with the indicated agent", "protocol": "ANP concentrations in the supernatant of ANP-C. novyi-NT culture and in mouse plasma were measured by an Elisa kit from Ray Biotech (EIAR-ANP-1) that recognizes both human and mouse ANP. ANP in the supernatant of ANP-C. novyi-NT culture were shown biological activities as described elsewhere (Lofton et al., 1990 Biochem. Biophys. Res. Comm., 172:793-9). Briefly, bacterial supernatants were applied to cultured bovine aortic endothelial cells (BAOEC, Cell Applications Inc.) for 3 minutes. cGMP concentrations were then measured in BAOEC lysates by the Direct cGMP Elisa Kit from Enzo following the manufacture's instruction.\nThe colon cancer cell line CT26 was injected subcutaneously into the right flank of six to eight week old female Balb/C mice as described elsewhere (Qiao et al., 2011 Oncotarget, 2:59-68). Tumor sizes were measured with a caliper and calculated as ½*L*W*H as described elsewhere (Tomayko et al., 1989 Can. Chemother. Pharmacol., 24:148-54). […]\nBlood samples were collected into tubes containing 5 mM EDTA and 4 mM sodium metabisulfite after puncturing the facial vein or (terminally) by cardiac puncture. […] Catecholamines (dopamine, norepinephrine and epinephrine) were measured using the 3-CAT Research ELISA kit from Labor Diagnostika Nord GmbH/Rocky Mountain Diagnostics. Cytokines were measured using Luminex assays based on Millipore Mouse and Human Cytokine/Chemokine panels. […]", "note": "At least one compound was matched to its structure with a doubt left.", "data": [{"smiles": "C[C@@H]1C[C@H]2[C@@H]3CCC4=CC(=O)C=C[C@]4(C)[C@@]3(F)[C@@H](O)C[C@]2(C)[C@@]1(O)C(=O)CO", "note": "[dexamethasone]", "values": [{"measurement": "effect on survival (words)", "value": "did not protect animals from sepsis"}]}]}
